Test results: the supplement of paper PMC10849652
Some of the results follow.

By UniProt entry, the sequences of proteins in these tests, tags left out. Where a name states a change or a piece, a line headed by the entry shows the natural chain unless it says otherwise.
UniProt Q8IYI6: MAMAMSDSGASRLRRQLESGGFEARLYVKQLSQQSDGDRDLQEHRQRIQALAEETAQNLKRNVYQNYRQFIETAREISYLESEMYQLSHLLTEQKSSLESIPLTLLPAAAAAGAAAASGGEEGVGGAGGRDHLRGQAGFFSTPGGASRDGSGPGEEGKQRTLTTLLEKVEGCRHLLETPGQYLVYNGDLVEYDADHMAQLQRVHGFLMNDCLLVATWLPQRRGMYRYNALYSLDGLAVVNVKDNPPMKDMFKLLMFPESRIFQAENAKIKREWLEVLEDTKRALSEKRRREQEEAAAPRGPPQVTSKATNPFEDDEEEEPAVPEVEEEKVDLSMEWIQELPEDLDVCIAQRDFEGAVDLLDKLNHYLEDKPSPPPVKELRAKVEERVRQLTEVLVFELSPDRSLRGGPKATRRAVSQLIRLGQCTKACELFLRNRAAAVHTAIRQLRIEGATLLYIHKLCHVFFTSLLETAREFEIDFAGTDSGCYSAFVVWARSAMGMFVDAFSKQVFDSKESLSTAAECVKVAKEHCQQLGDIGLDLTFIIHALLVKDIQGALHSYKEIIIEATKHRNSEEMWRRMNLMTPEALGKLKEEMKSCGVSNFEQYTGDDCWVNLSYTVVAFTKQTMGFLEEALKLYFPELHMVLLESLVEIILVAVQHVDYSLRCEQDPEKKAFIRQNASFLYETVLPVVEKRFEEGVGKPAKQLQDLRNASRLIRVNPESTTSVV
UniProt Q15910, whole entry, looked up: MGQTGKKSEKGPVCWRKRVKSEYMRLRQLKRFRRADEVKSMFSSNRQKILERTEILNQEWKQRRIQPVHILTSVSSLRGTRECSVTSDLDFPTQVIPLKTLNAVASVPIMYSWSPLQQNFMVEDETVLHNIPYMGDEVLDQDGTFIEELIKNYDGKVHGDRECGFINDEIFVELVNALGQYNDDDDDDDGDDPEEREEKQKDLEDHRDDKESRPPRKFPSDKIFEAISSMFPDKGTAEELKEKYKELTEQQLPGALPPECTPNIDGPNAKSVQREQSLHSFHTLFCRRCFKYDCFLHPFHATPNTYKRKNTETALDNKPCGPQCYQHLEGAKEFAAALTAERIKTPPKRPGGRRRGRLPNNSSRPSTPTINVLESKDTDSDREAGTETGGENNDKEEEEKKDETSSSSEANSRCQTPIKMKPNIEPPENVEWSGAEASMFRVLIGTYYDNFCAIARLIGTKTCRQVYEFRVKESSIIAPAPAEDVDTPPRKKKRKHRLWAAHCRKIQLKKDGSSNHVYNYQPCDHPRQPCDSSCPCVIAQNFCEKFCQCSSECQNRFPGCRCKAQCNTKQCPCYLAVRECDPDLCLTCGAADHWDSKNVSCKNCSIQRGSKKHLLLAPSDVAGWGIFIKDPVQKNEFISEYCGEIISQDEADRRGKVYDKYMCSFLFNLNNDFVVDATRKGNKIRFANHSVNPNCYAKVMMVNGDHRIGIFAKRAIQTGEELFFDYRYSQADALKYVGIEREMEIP
UniProt Q96ND0: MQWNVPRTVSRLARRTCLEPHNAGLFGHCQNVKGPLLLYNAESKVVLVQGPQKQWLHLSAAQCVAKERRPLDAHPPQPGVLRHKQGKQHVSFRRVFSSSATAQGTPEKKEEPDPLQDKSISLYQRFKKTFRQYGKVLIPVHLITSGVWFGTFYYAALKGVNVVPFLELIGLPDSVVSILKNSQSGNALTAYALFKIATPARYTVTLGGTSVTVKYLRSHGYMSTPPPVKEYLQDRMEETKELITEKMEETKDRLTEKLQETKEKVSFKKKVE
UniProt Q9H501: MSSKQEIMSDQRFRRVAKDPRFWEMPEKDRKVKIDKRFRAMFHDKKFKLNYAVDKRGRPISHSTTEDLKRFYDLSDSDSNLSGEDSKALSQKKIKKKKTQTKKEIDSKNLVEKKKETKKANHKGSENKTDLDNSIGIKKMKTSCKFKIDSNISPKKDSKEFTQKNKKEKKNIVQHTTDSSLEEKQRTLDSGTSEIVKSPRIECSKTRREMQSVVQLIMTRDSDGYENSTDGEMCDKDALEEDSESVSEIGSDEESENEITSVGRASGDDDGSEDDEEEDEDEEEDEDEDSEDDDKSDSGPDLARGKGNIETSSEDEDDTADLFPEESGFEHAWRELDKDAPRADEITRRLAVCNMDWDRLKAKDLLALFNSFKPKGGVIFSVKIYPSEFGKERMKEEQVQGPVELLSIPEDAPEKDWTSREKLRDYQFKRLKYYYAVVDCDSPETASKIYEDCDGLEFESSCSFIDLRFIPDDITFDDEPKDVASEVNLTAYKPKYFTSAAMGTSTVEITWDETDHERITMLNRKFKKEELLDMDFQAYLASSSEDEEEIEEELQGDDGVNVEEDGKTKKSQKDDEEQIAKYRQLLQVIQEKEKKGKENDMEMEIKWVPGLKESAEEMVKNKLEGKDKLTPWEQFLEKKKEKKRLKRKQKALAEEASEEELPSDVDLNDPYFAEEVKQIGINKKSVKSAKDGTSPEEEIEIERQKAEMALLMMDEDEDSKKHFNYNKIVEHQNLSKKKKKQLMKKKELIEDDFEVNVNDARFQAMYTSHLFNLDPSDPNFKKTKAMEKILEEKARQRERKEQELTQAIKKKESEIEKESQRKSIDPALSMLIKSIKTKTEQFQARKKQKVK
UniProt Q5W0V3: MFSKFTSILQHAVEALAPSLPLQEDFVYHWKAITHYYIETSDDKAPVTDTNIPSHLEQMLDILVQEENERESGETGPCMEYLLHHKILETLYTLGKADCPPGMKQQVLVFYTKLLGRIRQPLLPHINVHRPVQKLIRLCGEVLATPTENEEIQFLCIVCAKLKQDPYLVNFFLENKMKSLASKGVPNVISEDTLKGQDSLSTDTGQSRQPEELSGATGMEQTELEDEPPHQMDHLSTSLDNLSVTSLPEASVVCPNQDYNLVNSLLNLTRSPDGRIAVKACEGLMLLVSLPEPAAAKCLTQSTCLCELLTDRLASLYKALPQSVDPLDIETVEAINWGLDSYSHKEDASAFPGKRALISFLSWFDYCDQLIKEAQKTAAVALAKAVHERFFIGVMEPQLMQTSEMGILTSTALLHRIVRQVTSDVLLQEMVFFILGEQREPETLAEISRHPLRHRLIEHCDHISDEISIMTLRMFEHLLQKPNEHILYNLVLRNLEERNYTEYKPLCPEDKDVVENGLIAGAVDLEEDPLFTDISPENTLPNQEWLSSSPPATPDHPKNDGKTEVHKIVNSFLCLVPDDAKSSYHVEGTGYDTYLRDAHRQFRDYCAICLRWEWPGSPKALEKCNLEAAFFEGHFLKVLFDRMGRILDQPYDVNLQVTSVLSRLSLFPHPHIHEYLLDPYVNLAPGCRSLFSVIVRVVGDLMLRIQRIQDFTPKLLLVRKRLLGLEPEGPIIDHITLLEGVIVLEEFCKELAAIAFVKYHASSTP
UniProt Q5JUQ0: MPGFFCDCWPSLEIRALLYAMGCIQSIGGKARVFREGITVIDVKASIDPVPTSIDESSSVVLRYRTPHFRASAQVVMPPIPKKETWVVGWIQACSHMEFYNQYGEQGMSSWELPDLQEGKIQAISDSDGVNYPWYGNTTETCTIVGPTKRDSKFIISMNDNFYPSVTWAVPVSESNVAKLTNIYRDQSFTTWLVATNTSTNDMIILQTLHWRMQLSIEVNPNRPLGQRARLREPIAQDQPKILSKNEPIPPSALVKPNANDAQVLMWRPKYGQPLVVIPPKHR
UniProt Q8N612: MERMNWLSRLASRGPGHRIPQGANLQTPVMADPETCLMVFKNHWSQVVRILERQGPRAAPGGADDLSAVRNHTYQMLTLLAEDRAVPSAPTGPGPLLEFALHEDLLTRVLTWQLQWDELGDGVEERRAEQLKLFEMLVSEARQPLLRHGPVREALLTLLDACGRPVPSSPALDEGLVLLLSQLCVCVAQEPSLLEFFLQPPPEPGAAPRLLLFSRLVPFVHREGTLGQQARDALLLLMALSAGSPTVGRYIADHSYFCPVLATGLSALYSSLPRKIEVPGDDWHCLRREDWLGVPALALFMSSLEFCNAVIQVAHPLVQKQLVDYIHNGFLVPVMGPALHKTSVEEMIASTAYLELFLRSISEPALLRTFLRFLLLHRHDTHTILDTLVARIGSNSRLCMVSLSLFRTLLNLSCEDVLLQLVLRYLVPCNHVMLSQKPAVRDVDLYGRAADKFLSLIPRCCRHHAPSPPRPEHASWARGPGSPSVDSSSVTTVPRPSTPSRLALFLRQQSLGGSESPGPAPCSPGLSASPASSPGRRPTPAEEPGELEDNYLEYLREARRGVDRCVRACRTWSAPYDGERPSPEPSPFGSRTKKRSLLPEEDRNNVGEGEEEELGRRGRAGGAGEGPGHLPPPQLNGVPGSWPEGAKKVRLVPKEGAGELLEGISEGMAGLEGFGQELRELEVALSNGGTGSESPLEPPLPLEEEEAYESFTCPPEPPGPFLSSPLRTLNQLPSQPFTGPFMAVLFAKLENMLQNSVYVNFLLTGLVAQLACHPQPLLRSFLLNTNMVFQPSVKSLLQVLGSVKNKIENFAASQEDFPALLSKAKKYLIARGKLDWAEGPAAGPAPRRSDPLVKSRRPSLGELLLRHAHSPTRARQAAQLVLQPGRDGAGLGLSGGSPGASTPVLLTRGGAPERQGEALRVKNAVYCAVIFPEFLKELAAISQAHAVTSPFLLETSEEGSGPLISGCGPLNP
UniProt Q13158: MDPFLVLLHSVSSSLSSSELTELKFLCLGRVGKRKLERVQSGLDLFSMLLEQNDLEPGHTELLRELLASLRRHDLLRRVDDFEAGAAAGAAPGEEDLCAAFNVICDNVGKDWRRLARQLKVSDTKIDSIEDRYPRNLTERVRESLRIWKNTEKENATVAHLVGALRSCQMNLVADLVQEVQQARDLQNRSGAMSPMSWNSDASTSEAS
UniProt Q8WU58: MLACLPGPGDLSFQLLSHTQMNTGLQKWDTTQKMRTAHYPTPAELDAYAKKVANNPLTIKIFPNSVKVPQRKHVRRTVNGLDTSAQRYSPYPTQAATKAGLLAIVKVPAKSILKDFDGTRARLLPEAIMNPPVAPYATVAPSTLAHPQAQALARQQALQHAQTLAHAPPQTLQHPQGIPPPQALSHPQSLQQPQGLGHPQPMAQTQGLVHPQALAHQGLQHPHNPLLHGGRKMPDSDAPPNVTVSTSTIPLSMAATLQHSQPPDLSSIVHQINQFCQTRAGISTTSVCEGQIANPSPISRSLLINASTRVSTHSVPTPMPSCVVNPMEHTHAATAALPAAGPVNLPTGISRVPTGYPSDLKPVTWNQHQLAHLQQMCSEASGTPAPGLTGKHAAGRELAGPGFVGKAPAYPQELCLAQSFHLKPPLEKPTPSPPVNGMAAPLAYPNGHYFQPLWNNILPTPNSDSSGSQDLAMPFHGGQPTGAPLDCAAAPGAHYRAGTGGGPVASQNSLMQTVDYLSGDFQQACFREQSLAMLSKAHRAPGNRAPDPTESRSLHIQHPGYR
UniProt Q9BPY3: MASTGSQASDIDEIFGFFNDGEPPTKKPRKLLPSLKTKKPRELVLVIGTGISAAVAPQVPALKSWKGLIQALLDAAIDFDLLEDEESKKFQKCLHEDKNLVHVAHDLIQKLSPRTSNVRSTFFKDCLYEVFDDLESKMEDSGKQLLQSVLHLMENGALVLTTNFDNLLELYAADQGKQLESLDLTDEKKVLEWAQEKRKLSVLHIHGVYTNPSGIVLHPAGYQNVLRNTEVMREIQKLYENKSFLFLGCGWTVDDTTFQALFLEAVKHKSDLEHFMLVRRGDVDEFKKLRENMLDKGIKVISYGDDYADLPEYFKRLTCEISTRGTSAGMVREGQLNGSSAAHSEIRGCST
UniProt P98173: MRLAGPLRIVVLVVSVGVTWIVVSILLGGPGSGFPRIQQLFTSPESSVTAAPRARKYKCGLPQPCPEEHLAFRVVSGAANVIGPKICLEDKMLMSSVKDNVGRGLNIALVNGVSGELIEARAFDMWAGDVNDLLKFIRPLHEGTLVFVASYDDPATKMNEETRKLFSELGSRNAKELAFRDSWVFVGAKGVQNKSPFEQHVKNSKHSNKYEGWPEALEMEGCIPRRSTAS
UniProt Q8IXS8: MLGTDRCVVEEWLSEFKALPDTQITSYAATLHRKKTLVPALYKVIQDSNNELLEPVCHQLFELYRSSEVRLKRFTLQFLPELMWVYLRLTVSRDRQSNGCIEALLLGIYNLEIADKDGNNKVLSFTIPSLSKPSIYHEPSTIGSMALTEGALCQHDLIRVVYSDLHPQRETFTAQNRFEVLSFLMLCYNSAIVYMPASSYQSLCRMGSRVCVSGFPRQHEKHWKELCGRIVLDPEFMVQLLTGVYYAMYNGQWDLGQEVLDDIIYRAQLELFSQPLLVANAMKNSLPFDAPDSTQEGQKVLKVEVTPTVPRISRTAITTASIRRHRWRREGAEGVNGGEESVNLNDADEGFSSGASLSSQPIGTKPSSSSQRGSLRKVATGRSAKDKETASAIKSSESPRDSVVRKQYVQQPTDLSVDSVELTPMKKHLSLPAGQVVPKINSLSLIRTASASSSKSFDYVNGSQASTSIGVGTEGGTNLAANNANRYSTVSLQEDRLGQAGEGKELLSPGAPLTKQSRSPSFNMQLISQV

Compound: C1=CC=C(C=C1)[C@H](COC2=CC3=C(C=C2)NC(=O)N3)NC(=O)C4=CC=CN(C4=O)CC5=CC(=C(C=C5)F)F
Test: log2 fold change, soluble protein after heating vs DMSO (PISA); higher = thermal stabilisation; K562 lysate, 10 uM; active = over 0.2 and 3.5 SD of the protein, either way, in both replicates (recomputed)
Outline: (§1)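 Values give the log-two fold change in thermal stability against solvent controls, from duplicates. Crude K562 extract at 1 mg/mL protein, made by dounce homogenisation in PBS pH 7.4 with 1 mM MgCl2, was treated with 10 μM compound for 30 min. After 3 min heating across 48°C-58°C, aliquots were pooled, adjusted to 0.5% NP-40 at 4°C and centrifuged at 21,000xg for 90 min. The supernatant was measured by TMTpro 16plex LC-MS/MS with channel sums equalised.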

Row | Target | log2 fold change
1 | FAM76A isoform 3 (UniProt Q8TAV0) | inactive: -0.054
2 | EXOSC2 (UniProt Q13868) | inactive: 0.005
3 | EXOC8 (UniProt Q8IYI6) | inactive: -0.025
4 | EXOC2 (UniProt Q96KP1) | inactive: -0.01
5 | FAM49B (UniProt Q9NUQ9) | inactive: 0.032
6 | ERICH1 (UniProt Q86X53) | inactive: -0.032
7 | EXOC6 (UniProt Q8TAG9) | inactive: -0.035
8 | FAM114A1 (UniProt Q8IWE2) | inactive: -0.076
9 | F10 (UniProt P00742) | inactive: -0.047
10 | ESS2 (UniProt Q96DF8) | inactive: 0.064
11 | FAM49B, A0A1W2PRQ0 | inactive: 0.177
12 | FAM32A (UniProt Q9Y421) | inactive: 0.065
13 | EZH2 isoform 2 (UniProt Q15910) | inactive: -0.05
14 | EXOG (UniProt Q9Y2C4) | inactive: -0.133
15 | EXOC4 (UniProt Q96A65) | inactive: -0.001
16 | FAM210A (UniProt Q96ND0) | inactive: 0.03
17 | FAM172A (UniProt Q8WUF8) | inactive: 0.084
18 | EXOSC8 (UniProt Q96B26) | inactive: 0.035
19 | ESF1 (UniProt Q9H501) | inactive: 0.04

Row | Target | log2 fold change
20 | EVL isoform 2 (UniProt Q9UI08) | inactive: 0.063
21 | FAM160B1 (UniProt Q5W0V3) | inactive: 0.018
22 | FAM78A (UniProt Q5JUQ0) | inactive: 0.094
23 | FAM120B (UniProt Q96EK7) | inactive: 0.034
24 | F2 (UniProt P00734) | inactive: 0.02
25 | FAM117A (UniProt Q9C073) | inactive: 0.016
26 | FAM160A2 isoform 2 (UniProt Q8N612) | inactive: 0.026
27 | ETNK1 (UniProt Q9HBU6) | inactive: -0.008
28 | EXO5 (UniProt Q9H790) | inactive: 0.033
29 | ESYT1 isoform 2 (UniProt Q9BSJ8) | inactive: 0.02
30 | ESPL1 (UniProt Q14674) | inactive: 0.016
31 | FADD (UniProt Q13158) | inactive: -0.007
32 | FAM222B (UniProt Q8WU58) | inactive: -0.138
33 | FAM118B (UniProt Q9BPY3) | inactive: -0.025
34 | FAF2 (UniProt Q96CS3) | inactive: -0.032
35 | FAHD2B (UniProt Q6P2I3) | inactive: 0.007
36 | FAM3A (UniProt P98173) | inactive: -0.044
37 | FAM126B (UniProt Q8IXS8) | inactive: -0.119
38 | FAM136A (UniProt Q96C01) | inactive: 0.049

Compound: CC1=C(SC2=C1C(=N[C@H](C3=NN=C(N32)C)CC(=O)N)C4=CC=C(C=C4)Cl)C
Test: as above
Outline: as §1

Row | Target | log2 fold change
39 | FAM76A isoform 3 (UniProt Q8TAV0) | inactive: 0.054
40 | EXOSC2 (UniProt Q13868) | inactive: 0.011
41 | EXOC8 (UniProt Q8IYI6) | inactive: 0.013
42 | EXOC2 (UniProt Q96KP1) | inactive: -0.018
43 | FAM49B (UniProt Q9NUQ9) | inactive: -0.001
44 | ERICH1 (UniProt Q86X53) | inactive: -0.229
45 | EXOC6 (UniProt Q8TAG9) | inactive: -0.022
46 | FAM114A1 (UniProt Q8IWE2) | inactive: 0.136
47 | F10 (UniProt P00742) | inactive: -0.053
48 | ESS2 (UniProt Q96DF8) | inactive: 0.096
49 | FAM49B, A0A1W2PRQ0 | inactive: -0.006
50 | FAM32A (UniProt Q9Y421) | inactive: -0.016
51 | EZH2 isoform 2 (UniProt Q15910) | inactive: -0.107
52 | EXOG (UniProt Q9Y2C4) | inactive: 0.106
53 | EXOC4 (UniProt Q96A65) | inactive: 0.009
54 | FAM210A (UniProt Q96ND0) | inactive: -0.001
55 | FAM172A (UniProt Q8WUF8) | inactive: 0.043
56 | EXOSC8 (UniProt Q96B26) | inactive: 0
57 | ESF1 (UniProt Q9H501) | inactive: 0.036

Row | Target | log2 fold change
58 | EVL isoform 2 (UniProt Q9UI08) | inactive: -0.049
59 | FAM160B1 (UniProt Q5W0V3) | inactive: -0.011
60 | FAM78A (UniProt Q5JUQ0) | inactive: 0.016
61 | FAM120B (UniProt Q96EK7) | inactive: 0.059
62 | F2 (UniProt P00734) | inactive: -0.044
63 | FAM117A (UniProt Q9C073) | inactive: 0.004
64 | FAM160A2 isoform 2 (UniProt Q8N612) | inactive: 0.028
65 | ETNK1 (UniProt Q9HBU6) | inactive: -0.038
66 | EXO5 (UniProt Q9H790) | inactive: -0.179
67 | ESYT1 isoform 2 (UniProt Q9BSJ8) | inactive: 0.003
68 | ESPL1 (UniProt Q14674) | inactive: 0.129
69 | FADD (UniProt Q13158) | inactive: 0.073
70 | FAM222B (UniProt Q8WU58) | inactive: 0.099
71 | FAM118B (UniProt Q9BPY3) | inactive: -0.062
72 | FAF2 (UniProt Q96CS3) | inactive: -0.012
73 | FAHD2B (UniProt Q6P2I3) | inactive: -0.006
74 | FAM3A (UniProt P98173) | inactive: -0.011
75 | FAM126B (UniProt Q8IXS8) | inactive: 0.044
76 | FAM136A (UniProt Q96C01) | inactive: -0.12
